Measured values as given in patent US20200316090A1, “TARGETED THERAPEUTICS” (MADRIGAL PHARMACEUTICALS, INC., priority 2012, published 2020).

Experiment: Artificial membrane permeability assay (PAMPA)

Compound: NS(=O)(=O)c1cc(C(=O)O)c(NCc2ccco2)cc1Cl [Furosemide]
- Mass Retention (%) (5 h incubation, first table): 7.53%
- Mass Retention (%) (same protocol, second table): 2.63%
